Measurements published in patent US20160326257A1 (PIERRE FABRE MEDICAMENT, published 2016).
No constants are given. Whether binding was seen depends on the method and setting. Some entries that bind do so weakly or less than the wild type.

Sequences of proteins named here, by UniProt entry; tags and fusion partners are left off. A change or cut given only in a name is not applied to a line headed by its entry.
UniProt P78536: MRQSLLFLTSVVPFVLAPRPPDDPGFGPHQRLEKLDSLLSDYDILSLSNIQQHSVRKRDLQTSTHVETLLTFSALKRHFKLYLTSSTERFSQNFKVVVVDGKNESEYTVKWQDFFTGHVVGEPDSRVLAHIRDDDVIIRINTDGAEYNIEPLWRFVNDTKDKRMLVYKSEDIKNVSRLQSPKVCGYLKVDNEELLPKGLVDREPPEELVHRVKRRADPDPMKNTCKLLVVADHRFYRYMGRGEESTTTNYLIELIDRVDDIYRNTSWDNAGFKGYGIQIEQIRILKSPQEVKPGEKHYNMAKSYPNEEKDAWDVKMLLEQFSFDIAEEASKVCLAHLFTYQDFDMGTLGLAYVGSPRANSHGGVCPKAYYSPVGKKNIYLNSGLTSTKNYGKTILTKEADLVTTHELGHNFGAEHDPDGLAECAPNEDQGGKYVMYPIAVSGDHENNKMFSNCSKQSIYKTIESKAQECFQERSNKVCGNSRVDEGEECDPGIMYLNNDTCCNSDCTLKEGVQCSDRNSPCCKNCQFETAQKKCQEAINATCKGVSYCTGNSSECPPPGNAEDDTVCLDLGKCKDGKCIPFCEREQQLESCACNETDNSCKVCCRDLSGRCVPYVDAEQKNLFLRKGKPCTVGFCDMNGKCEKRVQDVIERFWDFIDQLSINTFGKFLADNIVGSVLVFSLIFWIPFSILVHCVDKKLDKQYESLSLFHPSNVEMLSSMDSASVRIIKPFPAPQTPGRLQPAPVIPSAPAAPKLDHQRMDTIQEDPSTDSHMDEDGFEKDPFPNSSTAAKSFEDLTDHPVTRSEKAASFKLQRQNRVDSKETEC

Key:
[1] = target: H1-671 (P-C-D-MPD) human ADAM17 human Fc fusion (human) (UniProt P78536); assay: Western blot, non-reducing SDS-PAGE, 1 µg/ml m1022C3
[2] = target: H457-671 (D-MPD) human ADAM17 human Fc fusion (human) (UniProt P78536); assay: as above
[3] = target: H1-671 (P-C-D-MPD) human ADAM17 human Fc fusion (human) (UniProt P78536); assay: SPR Biacore X100, m1022C3 captured on anti-mouse antibody, construct at 250 nM
[4] = target: H457-671 (D-MPD) human ADAM17 human Fc fusion (human) (UniProt P78536); assay: as above

Measured: binding

B1: m1022C3 (murine anti-ADAM17 monoclonal antibody 1022C3, hybridoma I-4686) (antibody, V domains shown)
VH: QVTLKESGPGILQPSQTLSLTCSFSGFSLNTSGMGVSWIRQPSGKGLEWLAHIYWDDDKRYNPSLKSRLTISKDTSSNQVFLKITSLDTADTATYYCARRSHFGNYYYAMDYWGQGTSVTVTS
VL: DVQMTQTTSSLSASLGDRVTISCRASQDISSYLNWYQQKPDGTFKLLIFYTSRLQSGVPSKYSGSGSGTDYSLTISNLEQEDIAAYFCQQGKTLPLTFGAGTKLELK
modifications: N-glycosylated asparagine in CDR-H1
notes: Murine antibody from a hybridoma; also called mAb 1022C3; mAb m1022C3
binds: all assays above
